Laboratory results reported in patent US20040023362A1, “Degradation of polycyclic aromatic hydrocarbons by microorganisms” (priority 2000, published 2004).
For at least one compound, name, drawing or mass did not settle the structure.

System: strains VUN 10,010, VUN 10,011 and VUN 10,012
Test: Growth of all the strains on compounds as sole carbon and energy source
Type: cell-based
Details: supplied at 50 mg l^−1
Experimental: Gram staining and biochemical tests for bacterial identification were performed according to Collin et al. (1989) following growth in nutrient broth or nutrient agar. […] Compounds tested were added to BSM as a sole carbon and energy source at 50 mg l^−1, and volatile compounds were supplied to the culture in the vapour phase. […] The cells were collected and washed in BSM and the resuspended cells were inoculated into BSM containing different carbon sources. Inoculated BSM without an added carbon source and uninoculated BSM plus carbon source were used as controls. Inocula for the PAH degradation tests were transferred directly from parent cultures, but inocula for other carbon sources were washed prior to inoculation.

SMILES: CC(=O)C(=O)O [Pyruvate]
- growth on compound as the sole carbon and energy source: grew
